Results as given in publication PMC6676524.
These are yes or no findings as the source states them, for the method shown. Binding seen in cells or lysates may run through a third protein. Some entries that bind do so weakly or less than the wild type.

Sequences of proteins named here, by UniProt entry; tags and fusion partners are left off. Residues count along the entry.
UniProt P35869, residues 11-848: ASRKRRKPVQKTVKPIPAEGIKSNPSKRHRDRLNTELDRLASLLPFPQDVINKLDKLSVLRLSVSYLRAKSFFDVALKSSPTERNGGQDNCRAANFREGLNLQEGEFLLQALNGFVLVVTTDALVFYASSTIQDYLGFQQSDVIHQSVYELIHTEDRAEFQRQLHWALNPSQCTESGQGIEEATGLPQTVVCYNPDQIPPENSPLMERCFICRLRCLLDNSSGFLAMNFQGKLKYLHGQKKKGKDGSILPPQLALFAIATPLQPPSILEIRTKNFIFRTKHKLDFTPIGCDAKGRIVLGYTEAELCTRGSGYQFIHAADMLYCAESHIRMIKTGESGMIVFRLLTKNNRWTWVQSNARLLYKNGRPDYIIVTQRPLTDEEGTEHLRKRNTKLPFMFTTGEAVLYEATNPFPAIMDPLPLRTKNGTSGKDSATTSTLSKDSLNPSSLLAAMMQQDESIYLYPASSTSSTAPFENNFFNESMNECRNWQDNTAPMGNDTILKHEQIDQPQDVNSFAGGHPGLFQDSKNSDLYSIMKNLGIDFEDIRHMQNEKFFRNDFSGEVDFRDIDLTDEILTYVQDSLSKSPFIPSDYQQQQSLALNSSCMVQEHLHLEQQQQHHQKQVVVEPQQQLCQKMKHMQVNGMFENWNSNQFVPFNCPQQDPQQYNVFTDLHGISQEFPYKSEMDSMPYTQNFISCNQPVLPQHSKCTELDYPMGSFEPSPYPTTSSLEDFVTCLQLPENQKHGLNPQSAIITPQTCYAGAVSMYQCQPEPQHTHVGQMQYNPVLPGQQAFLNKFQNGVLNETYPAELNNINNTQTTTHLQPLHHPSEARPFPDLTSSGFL

How the values were obtained:
[1] = target: G protein estrogen receptor (GPER) (human (endogenous in SkBr3)) (UniProt Q99527); experiment: co-IP; SkBr3 cells treated with vehicle or 1 uM 3MC for 1 h; RIPA lysates (250 ug protein) immunoprecipitated with anti-GPER, anti-AHR or anti-EGFR antibodies and Protein A/G agarose; each immunoprecipitate immunoblotted for GPER, AHR and EGFR; nonspecific IgG as control
[2] = target: aryl hydrocarbon receptor (AHR) (human (endogenous in SkBr3)) (UniProt P35869); experiment: as above

| binding [1] | binding [2] | Substance |
| --- | --- | --- |
| binds | – | aryl hydrocarbon receptor (AHR) (from UniProt P35869 11-848) |
| binds | binds | epidermal growth factor receptor (EGFR) (from UniProt P00533 25-1210) |
